For the assay, the target named is human adrenergic-α2A receptor (Homo sapiens, UniProt P08913). The assay can be described thus: Radioligand binding experiment for α2A-adrenoceptor ([3H]-raulwolscine competition, CHO cell membranes). To be noted: [3H]raulwolscine 1 nM, membranes of CHO cells transfected with human α2A receptor. On the procedure: The interaction of the compounds of Formula (I) with α2C-adrenoceptor receptors was assessed in in vitro radioligand binding experiments. In general, a low concentration of a radioligand with a high binding affinity for a particular receptor or transporter is incubated with a sample of a tissue preparation enriched in a particular receptor or transporter or with a preparation of cells expressing cloned human receptors in a buffered medium. During the incubation, the radioligand binds to the receptor or transporter. When equilibrium of binding is reached, the receptor bound radioactivity is separated from the non-bound radioactivity, and the receptor- or transporter-bound activity is counted. The interaction of the test compounds with the receptor is assessed in competition binding experiments. […]
Membranes were thawed and re-homogenized in incubation buffer (glycylglycine 25 mM, pH 8.0). […] Filter-bound radioactivity was determined by scintillation counting in a Topcount (Packard, Meriden, CT) and results were expressed as counts per minute (cpm). Non-specific binding was determined in the presence of 1 μM oxymetazoline for hα2A- and hα2B receptors and 1 μM spiroxatrine for hα2C receptors.
Data from assays in the presence of compound were calculated as a percentage of total binding measured in the absence of test compound. […]

Amino acid sequences for entries named in this document (tags omitted).
UniProt P08913, whole entry: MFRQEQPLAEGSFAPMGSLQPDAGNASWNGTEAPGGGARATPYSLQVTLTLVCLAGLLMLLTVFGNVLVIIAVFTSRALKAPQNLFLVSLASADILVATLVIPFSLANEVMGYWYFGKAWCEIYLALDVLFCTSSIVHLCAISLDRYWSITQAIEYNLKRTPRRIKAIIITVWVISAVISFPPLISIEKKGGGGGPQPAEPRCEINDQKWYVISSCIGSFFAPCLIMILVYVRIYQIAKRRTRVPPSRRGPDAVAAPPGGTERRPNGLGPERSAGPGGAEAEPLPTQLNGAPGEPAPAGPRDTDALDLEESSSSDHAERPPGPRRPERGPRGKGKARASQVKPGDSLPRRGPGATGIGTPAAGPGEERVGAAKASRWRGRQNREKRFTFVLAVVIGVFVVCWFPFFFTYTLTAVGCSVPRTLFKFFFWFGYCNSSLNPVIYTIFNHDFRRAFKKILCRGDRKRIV

The structures appear in SMILES notation. Values joined by “and” are separate entries in the source; they are usually repeats but may differ in a detail not shown here. Equal values may be shown once. Structures were worked out from names or drawings and are uncertain.

For the molecule `O=c1n(CC2CCN(CCOc3ccccc3)CC2)cnn1CCN1CCN(Cc2ccc3ccccc3c2)CC1`, the “pIC50 α2A” value was 7.5 and 7.4.

These data come from patent US20100029620A1, “SUBSTITUTED TRIAZOLINE, TETRAZOLONE AND IMIDAZOLONE DERIVATIVES FOR USE AS A MEDICINE” (JANSSEN PHARMACEUTICA N.V., priority 2004, published 2010).
